# Source: article PMC8384837
# Numbering of substitutions follows the chain as printed. This is one part of the list. For some assays here: At the low end of the ranking, values are background and their order means little.
# Columns and labels:
# Settings in all cases: yeast three-hybrid, YBZ-1, SC-Leu-His + 0.5 mM 3-AT, 4 days
# [1] = biological target: T1, PUM1 PUF domain R5-RMS C1007R + R1008M + Q1011S (Homo sapiens) (UniProt Q14671)
# T1 sequence: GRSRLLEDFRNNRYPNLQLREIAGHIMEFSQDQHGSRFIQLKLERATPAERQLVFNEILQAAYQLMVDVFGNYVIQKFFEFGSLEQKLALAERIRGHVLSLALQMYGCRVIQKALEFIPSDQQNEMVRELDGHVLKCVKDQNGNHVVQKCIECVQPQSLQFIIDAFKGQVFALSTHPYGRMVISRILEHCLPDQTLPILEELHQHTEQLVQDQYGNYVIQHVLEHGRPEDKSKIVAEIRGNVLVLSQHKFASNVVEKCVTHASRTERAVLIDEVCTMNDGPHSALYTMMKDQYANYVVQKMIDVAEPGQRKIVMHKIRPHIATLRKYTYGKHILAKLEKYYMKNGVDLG
# [2] = biological target: T2, PUM1 PUF domain R5-RMT C1007R + R1008M + Q1011T (Homo sapiens) (UniProt Q14671)
# T2 sequence: T1 sequence with S184T
# [3] = biological target: T3, PUM1 PUF domain R5-RMV C1007R + R1008M + Q1011V (UniProt Q14671)
# T3 sequence: T1 sequence with S184V
# [4] = biological target: T4, PUM1 PUF domain R5-RMW C1007R + R1008M + Q1011W (Homo sapiens) (UniProt Q14671)
# T4 sequence: T1 sequence with S184W
# [5] = biological target: T5, PUM1 PUF domain R5-RNA C1007R + R1008N + Q1011A (Homo sapiens) (UniProt Q14671)
# T5 sequence: T1 sequence with M181N, S184A
# [6] = biological target: T6, PUM1 PUF domain R5-RNE C1007R + R1008N + Q1011E (UniProt Q14671)
# T6 sequence: T1 sequence with M181N, S184E
# [7] = biological target: T7, PUM1 PUF domain R5-RNG C1007R + R1008N + Q1011G (Homo sapiens) (UniProt Q14671)
# T7 sequence: T1 sequence with M181N, S184G
# [8] = biological target: T8, PUM1 PUF domain R5-RNL C1007R + R1008N + Q1011L (UniProt Q14671)
# T8 sequence: T1 sequence with M181N, S184L
# [9] = biological target: T9, PUM1 PUF domain R5-RNR C1007R + R1008N + Q1011R (Homo sapiens) (UniProt Q14671)
# T9 sequence: T1 sequence with M181N, S184R
# [10] = biological target: T10, PUM1 PUF domain R5-RNS C1007R + R1008N + Q1011S (Homo sapiens) (UniProt Q14671)
# T10 sequence: T1 sequence with M181N
# [11] = biological target: T11, PUM1 PUF domain R5-RNV C1007R + R1008N + Q1011V (Homo sapiens) (UniProt Q14671)
# T11 sequence: T1 sequence with M181N, S184V
# [12] = biological target: T12, PUM1 PUF domain R5-RNW C1007R + R1008N + Q1011W (Homo sapiens) (UniProt Q14671)
# T12 sequence: T1 sequence with M181N, S184W
# [13] = biological target: T13, PUM1 PUF domain R5-RPC C1007R + R1008P + Q1011C (UniProt Q14671)
# T13 sequence: T1 sequence with M181P, S184C
# [14] = biological target: T14, PUM1 PUF domain R5-RPD C1007R + R1008P + Q1011D (UniProt Q14671)
# T14 sequence: T1 sequence with M181P, S184D
# [15] = biological target: T15, PUM1 PUF domain R5-RPM C1007R + R1008P + Q1011M (UniProt Q14671)
# T15 sequence: T1 sequence with M181P, S184M
# [16] = biological target: T16, PUM1 PUF domain R5-RPN C1007R + R1008P + Q1011N (UniProt Q14671)
# T16 sequence: T1 sequence with M181P, S184N
# [17] = biological target: T17, PUM1 PUF domain R5-RQA C1007R + R1008Q + Q1011A (Homo sapiens) (UniProt Q14671)
# T17 sequence: T1 sequence with M181Q, S184A
# [18] = biological target: T18, PUM1 PUF domain R5-RQD C1007R + R1008Q + Q1011D (Homo sapiens) (UniProt Q14671)
# T18 sequence: T1 sequence with M181Q, S184D
# [19] = biological target: T19, PUM1 PUF domain R5-RQE C1007R + R1008Q + Q1011E (Homo sapiens) (UniProt Q14671)
# T19 sequence: T1 sequence with M181Q, S184E
# [20] = biological target: T20, PUM1 PUF domain R5-RQH C1007R + R1008Q + Q1011H (Homo sapiens) (UniProt Q14671)
# T20 sequence: T1 sequence with M181Q, S184H
sequence,measurement,setting,value
GGCUAGAACUAGUGGAUCCCCCGGCGCCCGGCGGCUCGAGCCCGGGUAAGUGUAAAUAGUCUGCAUGCCGCCGGGCGCCAUGCCUGCAGGUCGACUCUAGAAAACAUG,binding signal (log2 enrichment (interaction score)),[1],-1.65
same,binding signal (log2 enrichment (interaction score)),[2],-0.83
same,binding signal (log2 enrichment (interaction score)),[3],-4.27
same,binding signal (log2 enrichment (interaction score)),[4],-1.26
same,binding signal (log2 enrichment (interaction score)),[5],-1.35
same,binding signal (log2 enrichment (interaction score)),[6],< -5.3
same,binding signal (log2 enrichment (interaction score)),[7],-0.41
same,binding signal (log2 enrichment (interaction score)),[8],-2.75
same,binding signal (log2 enrichment (interaction score)),[9],0.78
same,binding signal (log2 enrichment (interaction score)),[10],-0.38
same,binding signal (log2 enrichment (interaction score)),[11],-0.62
same,binding signal (log2 enrichment (interaction score)),[12],-0.91
same,binding signal (log2 enrichment (interaction score)),[13],< -7.79
same,binding signal (log2 enrichment (interaction score)),[14],< -7.65
same,binding signal (log2 enrichment (interaction score)),[15],< -7.18
same,binding signal (log2 enrichment (interaction score)),[16],-7.48
same,binding signal (log2 enrichment (interaction score)),[17],-0.93
same,binding signal (log2 enrichment (interaction score)),[18],0.15
same,binding signal (log2 enrichment (interaction score)),[19],-0.74
same,binding signal (log2 enrichment (interaction score)),[20],-2.73

# For convenience, some entries already given:
sequence,measurement,setting,value
GGCUAGAACUAGUGGAUCCCCCGGCGCCCGGCGGCUCGAGCCCGGGUAAGUGUAAAUAGUCUGCAUGCCGCCGGGCGCCAUGCCUGCAGGUCGACUCUAGAAAACAUG,binding signal (log2 enrichment (interaction score)),[7],-0.41
same,binding signal (log2 enrichment (interaction score)),[8],-2.75
